Results from patent publication EP4825852A1, “COMPOUND HAVING PROTEIN TYROSINE KINASE BTK-DEGRADING ACTIVITY, AND PREPARATION METHOD THEREFOR AND USE THEREOF” (dated 2026).
The structures given here were assigned with low confidence; some may be wrong.

The compounds below were run on Mino cells (assay: Mino cell proliferation assay (CTG)). Conditions: read-out: Mino IC50, 96 h incubation, cell growth inhibition.
Procedure: (§1) Mino or TMD8 cells were cultured in RPMI 1640 medium containing 10% fetal bovine serum (Gibco). After reaching the logarithmic growth phase, cells were collected, counted and seeded into 96-well plates at 2000 cells/well. Following overnight incubation, compounds were added to reach final concentrations of 1 µM, 200 nM, 40 nM, 8 nM, 1.6 nM, 0.32 nM, 0.064 nM, 0.0128 nM, 0.00256 nM and 0.00051 nM, with a final DMSO concentration of 0.2%. 0.2% DMSO and blank RPMI 1640 medium (without cells and compounds) were set as vehicle control and negative control, respectively. Two replicates were set for each concentration. After the test compound was mixed, the 96-well plate was placed in a 37°C, 5% CO2 incubator and cultured (Mino cells were incubated for 96 h, REC-1 and TMD8 cells were incubated for 72 h). After incubation, the plates were placed at room temperature, 50 µL of CTG reagent was added, and the plates were shaken for 2 min and incubated at room temperature for 10 min. The luminescence signal (RLU) in each well was measured using a microplate reader to calculate the cell growth inhibition rate, followed by fitting a dose-response curve to determine the half-inhibitory concentration (IC50). Table 1: IC50 of the exemplary compounds against TMD8/Mino cells
For `Cc1c(NC(=O)c2ccc(C(C)(C)O)c(F)c2F)cc(F)cc1-c1cc(Nc2ccc(N3CCN(CC4CN(c5cc(F)c(C6CCC(=O)NC6=O)c(F)c5)C4)C[C@@H]3C)cn2)c(=O)n(C)c1` (some centres unmarked), the IC50 was 7.73 nM. With `CN1CCN([C@@H]2CCCN(c3cnc(C(N)=O)c(Nc4ccc(C5CCN(C(=O)CN6CCC(n7ncc8c(N9CCC(=O)NC9=O)cccc87)CC6)CC5)cc4)n3)C2)C1=O` the IC50 was 0.2 nM. Compound `Cc1c(NC(=O)c2ccc(C(C)(C)O)c(F)c2F)cc(F)cc1-c1cc(Nc2ccc(N3CCN(CC4CN(c5cc(F)c(C6CCC(=O)NC6=O)c(F)c5)C4)CC3)cn2)c(=O)n(C)c1` (centres unmarked) has an IC50 of 3.62 nM. Work on `CN1CCN([C@@H]2CCCN(c3cnc(C(N)=O)c(Nc4ccc(C5CCN(C(=O)CN6CCC(n7ccc8c(N9CCC(=O)NC9=O)cc(Cl)cc87)CC6)CC5)cc4)n3)C2)C1=O` yielded an IC50 of 0.81 nM.

The compounds below were run on TMD8 cells (assay: TMD8 cell proliferation assay (CTG)). Conditions: read-out: TMD8 IC50, 72 h incubation, cell growth inhibition.
Procedure: as §1
`CN1CCN([C@@H]2CCCN(c3cnc(C(N)=O)c(Nc4ccc(C5CCN(C(=O)CN6CCC(n7ncc8c(N9CCC(=O)NC9=O)cccc87)CC6)CC5)cc4)n3)C2)C1=O` gave an IC50 of 1.7 nM. In the case of `Cc1c(NC(=O)c2ccc(C(C)(C)O)c(F)c2F)cc(F)cc1-c1cc(Nc2ccc(N3CCN(CC4CN(c5cc(F)c(C6CCC(=O)NC6=O)c(F)c5)C4)CC3)cn2)c(=O)n(C)c1` (centres unmarked), the IC50 is reported as 9.9 nM. In the case of `CN1CCN([C@@H]2CCCN(c3cnc(C(N)=O)c(Nc4ccc(C5CCN(C(=O)CN6CCC(n7ccc8c(N9CCC(=O)NC9=O)cc(Cl)cc87)CC6)CC5)cc4)n3)C2)C1=O`, the IC50 is reported as 1.5 nM. Work on `Cc1c(NC(=O)c2ccc(C(C)(C)O)cc2F)cc(F)cc1-c1cc(Nc2ccc(N3CCN(C(=O)[C@H]4C[C@@H](OCCNc5cccc6c5C(=O)N(C5CCC(=O)NC5=O)C6=O)C4)C[C@@H]3C)cn2)c(=O)n(C)c1` (some centres unmarked) yielded an IC50 of 2.7 nM.
